Consider 9 substances from patent publication US4206199 (dated 1980).

Non-standard residues stand in square brackets, D forms with d. *: point of attachment. Met(O) = CS(=O)CC[C@H](N)C(=O)O; Nle = CCCC[C@H](N)C(=O)O; Cbz = O=C(OCc1ccccc1)*; Boc = CC(C)(C)OC(=O)*; OBn = c1ccc(CO*)cc1

A short description of this data set: general procedure: solution-phase peptide synthesis; DCC/HONB (ONB active esters). To be noted: coupling step.
The substance “Boc-Asp(OBzl)-Ser-Arg(MBS)-Arg(MBS)-Ala-Gln-Asp(OBzl)-Phe-Val-Gln-Trp-Leu-Met(O)-Asn-Thr-OBzl” registered a step yield of 61.1%.
The result for “Boc-Asp(OBzl)-Ser-Arg(MBS)-Arg(MBS)-Ala-OH” reads 51.5%.
On to Boc-D(OBn)FVQW-OH, for which the step yield turned out to be 58.1%.
The result for “Boc-Gln-Asp(OBzl)-Phe-Val-Gln-Trp-Leu-Met(O)-Asn-Thr-OBzl” reads 76.8%; that for Boc-L[Met(O)]NT-OBn, 83.4%; that for Boc-L[Nle]NT-OBn, 83.8%.
Turning to Boc-QD(OBn)FVQW-OH, the step yield came out at 82.6%.
The result for Boc-Ser-Arg(MBS)-Arg(MBS)-Ala-OBu^t reads 79.0%; that for Cbz-FVQW-OH, 84.5%.
